According to article PMC7862700:
The entries are a selection whose mix differs from that of the whole data set. At the low end of the ranking the order means little.

These sequences were tested against T1, ELF3 (UniProt P78545) (assay: DAPPL (digital affinity profiling via proximity ligation, sequencing)). Conditions: 10 mM Tris-HCl pH 7.5, 50 mM NaCl, 1 mM DTT, 4% glycerol, room temperature, 30 min; GST-TFs on glutathione beads, 16-mer random dsDNA library, 0.1% …; high values mean tight binding; double strand, one strand shown; scale: fold enrichment (6-mer frequency, TF over GST control).
T1 sequence: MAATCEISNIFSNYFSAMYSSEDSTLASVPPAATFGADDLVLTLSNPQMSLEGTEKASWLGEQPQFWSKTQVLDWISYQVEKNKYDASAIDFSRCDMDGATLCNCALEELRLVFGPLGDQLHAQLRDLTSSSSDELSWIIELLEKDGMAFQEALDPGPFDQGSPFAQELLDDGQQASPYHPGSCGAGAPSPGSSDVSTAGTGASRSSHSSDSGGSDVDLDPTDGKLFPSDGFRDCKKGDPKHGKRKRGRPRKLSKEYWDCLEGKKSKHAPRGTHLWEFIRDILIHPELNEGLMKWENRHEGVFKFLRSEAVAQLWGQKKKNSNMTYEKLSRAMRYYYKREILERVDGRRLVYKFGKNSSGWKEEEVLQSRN
TACAAG gave a binding signal of 1.23.
GAAGCA was tested, and the binding signal was 1.27.
ACCGGA gave a binding signal of 3.15.
In the case of TCCAAT, the binding signal is reported as 1.11.
For GTAAAC, the binding signal was 1.38.
With CACTTA the binding signal was 1.24.
With CAGCTT the binding signal was 1.19.
Work on TAACTC yielded a binding signal of 0.964.
CCAAAA was tested, and the binding signal was 1.03.
Sequence ATCGCC has a binding signal of 1.12.
Sequence CCTACG has a binding signal of 1.5.
Sequence CTGACT has a binding signal of 1.52.
GCGATG showed a binding signal of 1.26.
For CTTTCT, the binding signal was 1.73.
Sequence ACCTGC has a binding signal of 1.65.
Work on AGATTC yielded a binding signal of 1.11.
With ACCAAT the binding signal was 1.28.
Work on ACTGCT yielded a binding signal of 1.32.
Sequence CGTACT has a binding signal of 1.15.
With TTGTGG the binding signal was 1.34.
CATTTC gave a binding signal of 1.61.
GGCTAG showed a binding signal of 0.957.
AATCAA gave a binding signal of 1.24.
GTCCAC showed a binding signal of 0.773.
Work on CGATAT yielded a binding signal of 1.14.
With ATATCG the binding signal was 1.02.
For TTCTCG, the binding signal was 1.57.
Sequence AAGTTT has a binding signal of 1.35.
AGCTAC gave a binding signal of 1.34.
Work on TCTTAA yielded a binding signal of 1.24.
Work on TAAAAC yielded a binding signal of 1.14.
With AATGCT the binding signal was 1.21.
For ATGGTA, the binding signal was 1.48.
In the case of ATAACT, the binding signal is reported as 1.24.
For CTACGA, the binding signal was 1.5.
Work on AATAAC yielded a binding signal of 1.25.
CCCTGG showed a binding signal of 1.
In the case of GGTATA, the binding signal is reported as 0.909.
AAAAGT was tested, and the binding signal was 1.12.
